PubChem BioAssay AID652243 – Drosophila RNAi Screening Center | 2013

Purpose: 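Knock-downs that decrease or increase androgen receptor reporter signal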 (primary screen)
Cell system: Drosophila S2R+ cells
Reagent: long dsRNA against Drosophila genes
Duration: 72 h (48 h, then 24 h hormone)
Challenge: synthetic androgen R1881 at 10 nM for 24 h
Measured: 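Firefly light from an androgen-responsive reporter and Renilla control light per well, raw and unnormalised, for each of two replicates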
Direction: firefly reporter light: higher = more light from androgen-responsive reporter; Renilla control light: higher = more constitutive control signal (cell number, transfection)
Rule for the call: 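Hit when the log firefly-to-Renilla ratio dropped or increased by a fixed fold versus the mean of GFP or LacZ controls across duplicate plates; lowering cut given as 1.5 and as 3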
Calls: active = hit: reporter lowered or raised; inactive = no hit
The deposit covers about 24,000 reagents; shown is a random part of those that have a named target and a result. Over the whole deposit, 246 (1%) got an active call. 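Plates not normalised; calls are printed but the firefly/Renilla ratio behind them is not deposited; fold cut for lowering reported inconsistently.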 Raw values are not corrected between plates. A plus sign joins genes that one reagent is predicted to hit. Not given: the amount of reagent.

Target gene	dsRNA	firefly reporter light, replicate 1	firefly reporter light, replicate 2	Renilla control light, replicate 1	Renilla control light, replicate 2	call
Coq4 + frc	DRSC10381	2.39e5	92093	2.18e6	1.31e6	inactive
Coq4 + frc	DRSC10382	4.03e5	2.04e5	2.27e6	1.91e6	inactive
Gbeta5 (G protein beta subunit 5)	DRSC17754	1.43e5	1.65e5	1.58e6	2.25e6	inactive
MFS15 (Major Facilitator Superfamily Transporter 15)	DRSC06523	59813	87846	1.18e6	1.16e6	inactive
MFS15 (Major Facilitator Superfamily Transporter 15)	DRSC28274	3.36e5	7.50e5	8.70e5	1.41e6	inactive
CG1999	DRSC18199	90401	55454	3.95e5	3.78e5	inactive
CG1999	DRSC29137	7.69e5	6.38e5	1.00e6	8.88e5	inactive
CG8034	DRSC20076	81787	67405	3.29e5	4.31e5	inactive
CG8034	DRSC29895	6.12e5	3.30e5	8.26e5	7.79e5	inactive
CG33268	DRSC10143	3.12e5	3.18e5	2.37e6	2.10e6	inactive
Tom (Twin of m4)	DRSC11306	8.82e5	8.38e5	1.33e6	1.53e6	inactive
Tom (Twin of m4)	DRSC27660	3.87e5	3.50e5	4.88e5	6.53e5	inactive
Tom (Twin of m4)	DRSC38982	7.17e5	6.88e5	1.56e6	1.39e6	inactive
CG7465	DRSC08592	1.56e5	1.94e5	2.12e6	3.53e6	inactive
CG7465	DRSC22320	6.84e5	7.96e5	2.65e6	2.59e6	inactive
CG7465	DRSC23943	1.37e6	1.38e6	1.49e6	1.22e6	inactive
CG10000	DRSC14170	2.79e5	2.46e5	2.07e6	2.96e6	inactive
CG10000	DRSC29791	9.55e5	4.85e5	1.50e6	9.14e5	inactive
TTLL4A (Tubulin tyrosine ligase-like 4A)	DRSC02528	8.23e5	7.33e5	2.62e6	2.72e6	inactive
TTLL4A (Tubulin tyrosine ligase-like 4A)	DRSC28124	5.15e5	4.95e5	1.38e6	1.11e6	inactive
CG10472	DRSC09730	7.70e5	1.10e6	1.10e6	1.47e6	inactive
CG10472	DRSC25310	1.00e6	1.11e6	1.21e6	1.12e6	inactive
VhaAC45 (Vacuolar H[+] ATPase AC45 accessory subunit)	DRSC07058	1.65e6	1.27e6	2.48e6	1.23e6	inactive
Irp-1A (Iron regulatory protein 1A)	DRSC16719	4.75e5	6.20e5	1.64e6	2.45e6	inactive
CG14292	DRSC14772	1.82e5	1.42e5	1.88e6	1.94e6	inactive
pns (pinstripe)	DRSC08598	43923	54325	6.73e5	1.08e6	inactive
CG13978	DRSC14720	1.91e5	2.15e5	1.99e6	2.97e6	inactive
CG11816	DRSC19428	1.62e5	1.61e5	2.78e6	2.63e6	inactive
CG11816	DRSC23612	7.98e5	1.03e6	1.09e6	1.02e6	inactive
CG30323	DRSC07656	66518	66960	1.38e6	1.38e6	inactive
Brf (Brf RNA polymerase III subunit)	DRSC14166	2.46e5	2.62e5	3.04e6	3.10e6	inactive
Brf (Brf RNA polymerase III subunit)	DRSC14167	1.41e5	1.51e5	1.94e6	1.88e6	inactive
CG12990	DRSC19510	5.49e5	5.94e5	4.15e6	3.77e6	inactive
CG15422	DRSC00436	63278	57689	8.89e5	7.29e5	inactive
CG15422	DRSC25238	6.90e5	4.80e5	6.46e5	5.47e5	inactive
CG18368	DRSC06731	65620	86374	1.46e6	1.46e6	inactive
Neu2 (Neuroectoderm-expressed 2)	DRSC11819	2.15e5	2.02e5	2.94e6	3.31e6	inactive
Neu2 (Neuroectoderm-expressed 2)	DRSC26795	3.31e5	2.70e5	5.97e5	5.19e5	inactive
Sulf1 (Sulfated)	DRSC16874	75944	86225	1.42e6	1.85e6	inactive
Sulf1 (Sulfated)	DRSC27279	1.72e5	2.02e5	4.82e5	6.45e5	inactive

7 neighbouring entries already listed:
Target gene	dsRNA	firefly reporter light, replicate 1	firefly reporter light, replicate 2	Renilla control light, replicate 1	Renilla control light, replicate 2	call
CG7465	DRSC23943	1.37e6	1.38e6	1.49e6	1.22e6	inactive
CG10000	DRSC14170	2.79e5	2.46e5	2.07e6	2.96e6	inactive
CG10000	DRSC29791	9.55e5	4.85e5	1.50e6	9.14e5	inactive
TTLL4A (Tubulin tyrosine ligase-like 4A)	DRSC02528	8.23e5	7.33e5	2.62e6	2.72e6	inactive
TTLL4A (Tubulin tyrosine ligase-like 4A)	DRSC28124	5.15e5	4.95e5	1.38e6	1.11e6	inactive
CG10472	DRSC09730	7.70e5	1.10e6	1.10e6	1.47e6	inactive
CG10472	DRSC25310	1.00e6	1.11e6	1.21e6	1.12e6	inactive
